Assay results: the supplement of paper PMC10849652
The other results are listed elsewhere or left out.

Amino acid sequences for entries named in this document (tags omitted). A change or cut given only in a name is not applied to a line headed by its entry.
UniProt O75808: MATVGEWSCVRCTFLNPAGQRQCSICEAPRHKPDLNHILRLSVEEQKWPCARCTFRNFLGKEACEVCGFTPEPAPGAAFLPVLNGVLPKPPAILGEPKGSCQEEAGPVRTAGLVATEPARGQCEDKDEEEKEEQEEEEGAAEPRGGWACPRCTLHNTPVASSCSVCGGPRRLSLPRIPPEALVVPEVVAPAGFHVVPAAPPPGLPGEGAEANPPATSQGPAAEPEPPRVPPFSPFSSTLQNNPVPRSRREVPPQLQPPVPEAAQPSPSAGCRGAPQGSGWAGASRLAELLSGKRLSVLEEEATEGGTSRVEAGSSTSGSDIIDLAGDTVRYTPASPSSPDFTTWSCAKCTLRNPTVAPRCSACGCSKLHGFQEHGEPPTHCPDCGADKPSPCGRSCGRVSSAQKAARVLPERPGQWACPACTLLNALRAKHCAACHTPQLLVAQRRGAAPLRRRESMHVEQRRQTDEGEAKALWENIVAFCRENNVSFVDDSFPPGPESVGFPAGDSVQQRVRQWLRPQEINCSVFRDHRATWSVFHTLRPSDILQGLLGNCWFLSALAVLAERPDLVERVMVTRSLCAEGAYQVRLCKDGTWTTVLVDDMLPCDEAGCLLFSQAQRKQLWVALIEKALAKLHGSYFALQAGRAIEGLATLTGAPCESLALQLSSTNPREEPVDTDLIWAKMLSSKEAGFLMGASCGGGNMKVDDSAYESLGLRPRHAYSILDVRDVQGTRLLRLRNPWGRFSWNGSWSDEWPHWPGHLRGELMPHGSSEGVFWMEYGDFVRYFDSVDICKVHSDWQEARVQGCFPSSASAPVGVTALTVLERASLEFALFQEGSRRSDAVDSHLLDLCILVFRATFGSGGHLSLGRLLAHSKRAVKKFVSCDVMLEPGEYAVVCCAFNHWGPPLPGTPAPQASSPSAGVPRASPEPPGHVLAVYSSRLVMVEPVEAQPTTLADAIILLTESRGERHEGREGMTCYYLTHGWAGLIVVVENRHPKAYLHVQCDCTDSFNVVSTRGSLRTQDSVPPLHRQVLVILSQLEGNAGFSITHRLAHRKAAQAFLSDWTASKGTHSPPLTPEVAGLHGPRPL
UniProt Q6P5X5: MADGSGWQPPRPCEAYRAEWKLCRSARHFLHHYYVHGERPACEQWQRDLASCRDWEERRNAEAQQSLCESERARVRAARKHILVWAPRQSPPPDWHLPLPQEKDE
UniProt Q5U649: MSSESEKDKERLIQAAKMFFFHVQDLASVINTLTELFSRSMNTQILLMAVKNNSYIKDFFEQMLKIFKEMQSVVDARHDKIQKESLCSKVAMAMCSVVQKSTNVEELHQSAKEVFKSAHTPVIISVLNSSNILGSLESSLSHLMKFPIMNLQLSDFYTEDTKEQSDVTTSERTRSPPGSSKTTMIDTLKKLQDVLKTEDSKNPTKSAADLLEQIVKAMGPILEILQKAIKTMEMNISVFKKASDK
UniProt P27482, whole entry, looked up: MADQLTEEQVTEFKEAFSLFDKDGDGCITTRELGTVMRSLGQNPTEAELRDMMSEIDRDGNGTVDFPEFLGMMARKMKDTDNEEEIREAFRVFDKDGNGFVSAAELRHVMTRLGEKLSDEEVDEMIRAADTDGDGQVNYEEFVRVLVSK
UniProt P0DMB2: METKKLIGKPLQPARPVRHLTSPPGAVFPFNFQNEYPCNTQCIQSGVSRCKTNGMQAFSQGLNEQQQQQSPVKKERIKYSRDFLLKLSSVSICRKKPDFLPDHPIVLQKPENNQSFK
UniProt Q9UPA5: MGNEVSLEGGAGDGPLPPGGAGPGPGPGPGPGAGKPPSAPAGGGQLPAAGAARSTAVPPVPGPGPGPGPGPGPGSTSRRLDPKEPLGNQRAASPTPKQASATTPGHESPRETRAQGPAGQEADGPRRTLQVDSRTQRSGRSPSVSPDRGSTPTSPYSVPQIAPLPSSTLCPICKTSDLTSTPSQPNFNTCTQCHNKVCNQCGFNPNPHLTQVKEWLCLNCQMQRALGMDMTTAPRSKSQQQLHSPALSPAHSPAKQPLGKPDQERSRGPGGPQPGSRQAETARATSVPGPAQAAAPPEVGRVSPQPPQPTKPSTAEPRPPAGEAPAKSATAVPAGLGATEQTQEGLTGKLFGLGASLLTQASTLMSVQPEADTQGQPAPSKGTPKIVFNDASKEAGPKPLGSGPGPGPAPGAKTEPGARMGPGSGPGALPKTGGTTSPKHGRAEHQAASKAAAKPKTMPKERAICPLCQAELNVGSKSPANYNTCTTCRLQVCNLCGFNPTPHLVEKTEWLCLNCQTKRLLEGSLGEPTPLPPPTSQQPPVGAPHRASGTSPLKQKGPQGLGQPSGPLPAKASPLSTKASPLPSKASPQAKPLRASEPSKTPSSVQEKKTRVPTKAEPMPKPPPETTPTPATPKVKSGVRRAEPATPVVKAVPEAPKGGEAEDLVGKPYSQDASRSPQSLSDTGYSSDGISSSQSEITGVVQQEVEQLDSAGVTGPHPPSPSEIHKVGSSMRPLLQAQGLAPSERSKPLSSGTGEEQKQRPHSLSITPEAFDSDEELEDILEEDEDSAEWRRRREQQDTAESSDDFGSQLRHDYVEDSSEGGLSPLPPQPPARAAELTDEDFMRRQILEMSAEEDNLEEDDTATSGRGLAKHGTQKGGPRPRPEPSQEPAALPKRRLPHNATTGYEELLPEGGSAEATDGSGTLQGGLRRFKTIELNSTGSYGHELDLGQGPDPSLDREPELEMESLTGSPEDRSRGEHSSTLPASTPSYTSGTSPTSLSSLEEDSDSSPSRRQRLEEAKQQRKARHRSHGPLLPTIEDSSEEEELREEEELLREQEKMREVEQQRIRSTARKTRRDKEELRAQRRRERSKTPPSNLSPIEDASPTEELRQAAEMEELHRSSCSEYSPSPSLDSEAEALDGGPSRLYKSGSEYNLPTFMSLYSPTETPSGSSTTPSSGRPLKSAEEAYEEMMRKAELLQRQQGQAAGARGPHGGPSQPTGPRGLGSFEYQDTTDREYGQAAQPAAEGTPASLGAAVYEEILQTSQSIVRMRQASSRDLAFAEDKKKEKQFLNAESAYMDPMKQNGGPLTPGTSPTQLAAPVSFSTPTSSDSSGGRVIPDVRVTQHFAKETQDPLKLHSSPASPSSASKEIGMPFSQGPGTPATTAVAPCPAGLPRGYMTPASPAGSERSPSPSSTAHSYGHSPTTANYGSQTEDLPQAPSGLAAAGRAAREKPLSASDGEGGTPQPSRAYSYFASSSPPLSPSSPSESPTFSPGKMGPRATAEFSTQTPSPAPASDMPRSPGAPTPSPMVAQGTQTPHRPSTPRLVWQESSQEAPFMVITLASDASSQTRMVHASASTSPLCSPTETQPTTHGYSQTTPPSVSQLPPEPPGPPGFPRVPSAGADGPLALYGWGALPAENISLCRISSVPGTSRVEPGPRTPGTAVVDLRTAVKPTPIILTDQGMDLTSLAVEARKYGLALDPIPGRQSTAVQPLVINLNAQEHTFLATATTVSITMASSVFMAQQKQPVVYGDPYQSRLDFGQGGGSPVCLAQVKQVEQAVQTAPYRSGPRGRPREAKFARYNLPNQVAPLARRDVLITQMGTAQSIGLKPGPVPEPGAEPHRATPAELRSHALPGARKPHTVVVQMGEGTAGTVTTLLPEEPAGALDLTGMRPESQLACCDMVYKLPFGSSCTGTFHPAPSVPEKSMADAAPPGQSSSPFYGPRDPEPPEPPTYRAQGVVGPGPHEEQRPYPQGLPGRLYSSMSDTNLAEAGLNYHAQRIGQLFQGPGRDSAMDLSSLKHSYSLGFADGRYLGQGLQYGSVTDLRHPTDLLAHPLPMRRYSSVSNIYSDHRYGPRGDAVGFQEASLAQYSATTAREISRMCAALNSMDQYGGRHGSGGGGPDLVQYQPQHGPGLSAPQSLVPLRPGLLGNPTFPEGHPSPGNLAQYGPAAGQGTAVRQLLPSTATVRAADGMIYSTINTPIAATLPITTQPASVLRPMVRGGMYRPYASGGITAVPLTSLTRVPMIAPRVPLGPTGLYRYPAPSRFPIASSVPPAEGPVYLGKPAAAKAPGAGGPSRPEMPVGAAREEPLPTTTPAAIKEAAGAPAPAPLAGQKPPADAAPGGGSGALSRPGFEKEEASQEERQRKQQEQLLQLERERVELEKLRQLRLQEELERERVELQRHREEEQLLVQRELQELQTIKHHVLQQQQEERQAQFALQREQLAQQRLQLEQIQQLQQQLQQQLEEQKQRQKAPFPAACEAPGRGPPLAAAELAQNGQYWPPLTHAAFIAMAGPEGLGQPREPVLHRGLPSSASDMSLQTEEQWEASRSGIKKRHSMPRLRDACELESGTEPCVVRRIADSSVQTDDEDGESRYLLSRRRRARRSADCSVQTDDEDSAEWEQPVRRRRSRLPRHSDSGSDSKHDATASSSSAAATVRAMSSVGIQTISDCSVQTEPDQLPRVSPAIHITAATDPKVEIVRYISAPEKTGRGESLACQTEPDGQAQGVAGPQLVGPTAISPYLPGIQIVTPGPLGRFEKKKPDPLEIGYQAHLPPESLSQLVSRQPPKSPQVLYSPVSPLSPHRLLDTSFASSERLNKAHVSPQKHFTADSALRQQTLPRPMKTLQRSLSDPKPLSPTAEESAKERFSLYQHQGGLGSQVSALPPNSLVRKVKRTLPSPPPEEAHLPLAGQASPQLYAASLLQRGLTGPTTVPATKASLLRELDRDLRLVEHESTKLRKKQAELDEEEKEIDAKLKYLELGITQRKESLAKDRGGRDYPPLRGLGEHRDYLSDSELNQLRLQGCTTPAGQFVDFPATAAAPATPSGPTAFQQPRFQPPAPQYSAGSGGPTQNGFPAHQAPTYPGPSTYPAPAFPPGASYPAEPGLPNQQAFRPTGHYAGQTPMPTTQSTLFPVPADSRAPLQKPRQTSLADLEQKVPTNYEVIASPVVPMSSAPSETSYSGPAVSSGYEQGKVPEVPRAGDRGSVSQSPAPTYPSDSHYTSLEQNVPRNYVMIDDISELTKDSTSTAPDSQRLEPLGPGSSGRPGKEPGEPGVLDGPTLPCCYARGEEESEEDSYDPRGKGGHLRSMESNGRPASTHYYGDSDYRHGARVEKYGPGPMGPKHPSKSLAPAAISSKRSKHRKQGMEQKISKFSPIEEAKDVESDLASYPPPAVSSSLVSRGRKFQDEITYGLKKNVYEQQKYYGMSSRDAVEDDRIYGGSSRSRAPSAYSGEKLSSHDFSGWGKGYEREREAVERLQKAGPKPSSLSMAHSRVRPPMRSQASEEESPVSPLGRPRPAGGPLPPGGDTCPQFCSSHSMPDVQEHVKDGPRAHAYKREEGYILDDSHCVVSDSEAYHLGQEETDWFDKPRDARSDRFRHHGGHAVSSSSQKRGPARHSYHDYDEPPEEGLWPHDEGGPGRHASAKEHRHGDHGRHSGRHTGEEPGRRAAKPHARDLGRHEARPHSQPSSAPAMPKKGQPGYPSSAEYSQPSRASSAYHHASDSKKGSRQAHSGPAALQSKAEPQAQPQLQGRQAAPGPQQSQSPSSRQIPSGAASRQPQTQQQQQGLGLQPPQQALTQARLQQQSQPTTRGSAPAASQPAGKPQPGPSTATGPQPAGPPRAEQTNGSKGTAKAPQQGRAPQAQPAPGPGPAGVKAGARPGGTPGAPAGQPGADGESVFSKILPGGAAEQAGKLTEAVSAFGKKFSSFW
UniProt Q96LW7: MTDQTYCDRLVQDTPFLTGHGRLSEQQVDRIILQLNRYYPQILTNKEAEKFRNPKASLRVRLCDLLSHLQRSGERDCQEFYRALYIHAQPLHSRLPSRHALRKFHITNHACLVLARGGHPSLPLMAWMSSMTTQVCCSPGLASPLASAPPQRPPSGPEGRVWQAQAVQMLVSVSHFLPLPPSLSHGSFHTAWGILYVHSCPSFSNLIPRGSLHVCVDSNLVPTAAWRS
UniProt Q01518, whole entry, looked up: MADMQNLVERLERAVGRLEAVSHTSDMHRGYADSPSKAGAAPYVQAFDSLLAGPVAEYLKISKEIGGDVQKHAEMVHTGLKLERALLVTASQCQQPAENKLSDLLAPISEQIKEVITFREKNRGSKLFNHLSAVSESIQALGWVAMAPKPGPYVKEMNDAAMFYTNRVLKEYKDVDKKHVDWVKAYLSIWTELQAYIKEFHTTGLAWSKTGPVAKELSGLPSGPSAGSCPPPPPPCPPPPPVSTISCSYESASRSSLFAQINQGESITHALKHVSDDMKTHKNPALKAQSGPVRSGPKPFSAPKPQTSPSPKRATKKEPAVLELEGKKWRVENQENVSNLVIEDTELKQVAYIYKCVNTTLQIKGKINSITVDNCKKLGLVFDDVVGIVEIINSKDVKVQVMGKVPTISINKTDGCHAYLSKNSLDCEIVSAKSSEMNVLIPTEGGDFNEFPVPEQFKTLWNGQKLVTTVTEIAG
UniProt Q9BRJ6: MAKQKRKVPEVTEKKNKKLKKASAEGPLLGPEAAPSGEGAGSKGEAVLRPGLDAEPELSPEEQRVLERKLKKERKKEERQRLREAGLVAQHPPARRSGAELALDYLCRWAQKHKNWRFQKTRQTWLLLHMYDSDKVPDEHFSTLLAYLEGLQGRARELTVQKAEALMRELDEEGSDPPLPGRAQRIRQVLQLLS

Tests used:
Experiment in all cases: log2 fold change, soluble protein after heating vs DMSO (PISA); higher = thermal stabilisation; K562 cells, 10 uM, 30 min; active = over 0.2 and 3.5 SD of the protein, either way, in both replicates (recomputed)
[1] = compound: NC(=O)Nc1cc(-c2cccc(F)c2)sc1C(=O)N[C@H]1CCCNC1
How it was run: (§1)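 Soluble protein was defined as the supernatant after 21,000xg for 90 min. It came from K562 cells at 2×10^6 cells/mL given 10 μM compound for 30 min, heated in aliquots for 3 min across 48°C-58°C, pooled, and extracted in PBS with 0.5% NP-40 at 4°C, and was quantified by TMTpro 16plex LC-MS/MS with equalised channel sums. Thermal stability against control samples, from duplicates, is reported as log2 fold change.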

[2] = compound: NC(=O)c1cnc(N[C@@H]2CCCC[C@@H]2N)nc1Nc1cccc(-n2nccn2)c1
How it was run: as §1

[3] = compound: Nc1ccccc1NC(=O)c1ccc(CNC(=O)OCc2cccnc2)cc1 [entinostat]
How it was run: as §1

[4] = compound: O=C1NC(=O)C(c2cnc3ccccn23)=C1c1cn2c3c(cc(F)cc13)CN(C(=O)N1CCCCC1)CC2
How it was run: as §1

[5] = compound: NCC(=O)Nc1ccc(-n2nc(C(F)(F)F)cc2-c2ccc3c(ccc4ccccc43)c2)cc1
How it was run: as §1

[6] = compound: O=C(CCCCCCNC(=O)c1cnc(N(c2ccccc2)c2ccccc2Cl)nc1)NO [citarinostat]
How it was run: as §1

[7] = compound: c1cc(OCCN2CCCCC2)cc(-c2n[nH]c3ccc(-c4nnc[nH]4)cc23)c1
How it was run: as §1

[8] = compound: NC1(c2ccc(-c3nc4ccn5c(=O)[nH]nc5c4cc3-c3ccccc3)cc2)CCC1
How it was run: as §1

[9] = compound: O=C(O)c1ccc2c(c1)nc(Nc1cccc(Cl)c1)c1ccncc12 [silmitasertib]
How it was run: as §1

[10] = compound: O=C(CCCCCCC(=O)Nc1ccccc1)NO [vorinostat]
How it was run: as §1

Measured: log2 fold change

C11orf24 (UniProt Q96F05)
inactive: [1] 0.014 | [2] -0.092 | [3] -0.115 | [4] 0.112

C6orf120 (UniProt Q7Z4R8)
inactive: [1] 0.068 | [5] -0.018 | [3] 0.083 | [6] 0.031 | [7] -0.141

C1orf167 isoform 2 (UniProt Q5SNV9)
inactive: [1] -0.163 | [8] 0.007 | [5] -0.489 | [3] -0.038 | [9] 0.086 | [4] 0.034

CA3 (UniProt P07451)
inactive: [1] 0.192 | [3] -0.2 | [4] 0.184

CAPN15 (UniProt O75808)
inactive: [1] -0.065 | [3] 0.052 | [10] 0.064 | [4] -0.142

CAAP1 (UniProt Q9H8G2)
inactive: [1] -0.015 | [2] -0.022 | [5] -0.117 | [3] -0.014 | [6] -0.006 | [4] -0.312 | [7] -0.122

CAPN1 (UniProt E9PLX0)
inactive: [1] -0.074 | [3] 0.103 | [6] 0.032 | [7] -0.21

C22orf39 (UniProt Q6P5X5)
inactive: [1] 0.093 | [2] -0.036 | [8] -0.106 | [3] 0.037 | [9] 0.016 | [4] 0.089

CARD11 (UniProt Q9BXL7)
inactive: [1] -0.176 | [2] -0.105 | [3] 0.048 | [4] 0.053

C15orf41 (UniProt Q9Y2V0)
inactive: [1] -0.076 | [2] -0.046 | [5] -0.061 | [3] -0.01 | [10] 0.069 | [6] 0.07 | [4] 0.023 | [7] -0.007

CAB39L (UniProt Q9H9S4)
inactive: [1] 0.035 | [2] 0.083 | [5] -0.162 | [3] -0.016 | [10] -0.197 | [6] -0.093 | [4] -0.043 | [7] -0.101

Retrieved one by one from above (2):
CAPN1 (UniProt E9PLX0)
inactive: [1] -0.074 | [3] 0.103 | [6] 0.032 | [7] -0.21

CAB39L (UniProt Q9H9S4)
inactive: [1] 0.035 | [2] 0.083 | [5] -0.162 | [3] -0.016 | [10] -0.197 | [6] -0.093 | [4] -0.043 | [7] -0.101

Continued:

C6orf62 (UniProt Q9GZU0)
inactive: [10] -0.107 | [4] -0.111

C8orf37 (UniProt Q96NL8)
inactive: [4] 0.002

CA2 (UniProt P00918)
inactive: [2] 0.161 | [8] -0.023 | [5] -0.139 | [6] -0.287 | [9] -0.108 | [7] 0.085

C12orf60 (UniProt Q5U649)
inactive: [4] -0.106

CALML3 (UniProt P27482)
inactive: [2] 0.475 | [8] 0.11 | [6] -0.057 | [9] 0 | [4] 0.015 | [7] 0.113

C12orf10 (UniProt Q9HB07)
inactive: [10] 0

CAMKK1 isoform 2 (UniProt Q8N5S9)
inactive: [10] 0.188

C8orf88 (UniProt P0DMB2)
inactive: [2] -0.532 | [8] -0.07 | [5] -0.22 | [10] -0.029 | [9] 0.195 | [4] 0.01

C19orf57 (UniProt Q0VDD7)
inactive: [2] -0.132 | [5] -0.027 | [10] 0.002

CA1 (UniProt E5RIF9)
inactive: [5] -0.029 | [4] -0.026

CABLES2 (UniProt Q9BTV7)
inactive: [8] -0.081 | [9] -0.226

C18orf21 (UniProt Q32NC0)
inactive: [8] 0.17 | [9] 0.228

BSN (UniProt Q9UPA5)
inactive: [2] 0.018 | [5] 0.067

CARD19 isoform 2 (UniProt Q96LW7)
inactive: [2] 0.086 | [8] 0.116 | [5] -0.121 | [10] 0.009 | [6] 0.03 | [9] 0.029 | [4] 0.108 | [7] 0.003

C19orf12 (UniProt Q9NSK7)
inactive: [2] -0.048 | [8] -0.078 | [6] 0.14 | [9] -0.023 | [4] -0.296 | [7] -0.035

C11orf96 (UniProt Q7Z7L8)
inactive: [5] 0.219 | [10] -0.009 | [4] -0.204

CALCOCO1 (UniProt Q9P1Z2)
inactive: [8] -0.007 | [5] -0.02 | [10] 0.075 | [6] -0.121 | [9] 0.091 | [4] -0.006 | [7] 0.025

CAPNS2 (UniProt Q96L46)
inactive: [8] 0.035 | [6] -0.26 | [9] 0.524 | [7] 0.556

CAP1 isoform 2 (UniProt Q01518)
inactive: [8] -0.049 | [9] 0.033

CABIN1 (UniProt Q9Y6J0)
inactive: [8] -0.106 | [9] 0.604

BTBD10 isoform 2 (UniProt Q9BSF8)
inactive: [2] 0.158 | [10] -0.187

C17orf99 (UniProt Q6UX52)
inactive: [2] -0.041 | [8] -0.018 | [10] -0.062 | [9] 0 | [4] -0.085

CARD6 (UniProt Q9BX69)
inactive: [6] -0.027 | [7] -0.121

C9orf16 (UniProt Q9BUW7)
inactive: [8] 0.019 | [10] -0.02 | [9] -0.069

C5orf30 (UniProt Q96GV9)
inactive: [2] -0.191 | [4] -0.051

BTN2A1 (UniProt Q7KYR7)
inactive: [5] -0.012 | [10] -0.144 | [6] 0.027 | [4] -0.017 | [7] -0.19

C5orf34 (UniProt Q96MH7)
inactive: [8] 0.076 | [9] 0.146

C7orf50 (UniProt Q9BRJ6)
inactive: [2] 0.082 | [5] 0.01

CAMK1 (UniProt Q14012)
inactive: [6] 0.152 | [7] 0.049

C5orf24 (UniProt Q7Z6I8)
inactive: [8] 0.07 | [5] 0.127 | [10] -0.012 | [9] 0.219 | [4] -0.063

C9 (UniProt P02748)
inactive: [8] 0.276 | [9] 0.18 | [4] 0.149

C12orf49 (UniProt Q9H741)
inactive: [10] 0.137

C3orf86 (UniProt P0DN24)
inactive: [8] 0.152 | [9] -0.139

Copied from above (two entries):
C9 (UniProt P02748)
inactive: [8] 0.276 | [9] 0.18 | [4] 0.149

C12orf49 (UniProt Q9H741)
inactive: [10] 0.137
